The assay concerns the target T1, GST-tagged p13Suc1 (Suc1-beads) (UniProt P08463).
T1 sequence: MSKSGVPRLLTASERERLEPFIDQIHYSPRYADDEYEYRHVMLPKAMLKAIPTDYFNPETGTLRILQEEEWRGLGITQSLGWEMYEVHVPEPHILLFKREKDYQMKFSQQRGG
The experiment in a line: pull-down; Suc1-beads (Millipore) incubated with S. pombe protein extracts; pulldowns analysed by SDS-PAGE and Western blot with anti-Cdc2 monoclonal; in the absence of ATP-analogues; only the target purified. (In general: Immunoblotting shows a protein as a band on a membrane.)

The chains behind the UniProt entries cited, without tags or fusion partners. Where a name states a change or a piece, a line headed by the entry shows the natural chain unless it says otherwise.
UniProt P04551: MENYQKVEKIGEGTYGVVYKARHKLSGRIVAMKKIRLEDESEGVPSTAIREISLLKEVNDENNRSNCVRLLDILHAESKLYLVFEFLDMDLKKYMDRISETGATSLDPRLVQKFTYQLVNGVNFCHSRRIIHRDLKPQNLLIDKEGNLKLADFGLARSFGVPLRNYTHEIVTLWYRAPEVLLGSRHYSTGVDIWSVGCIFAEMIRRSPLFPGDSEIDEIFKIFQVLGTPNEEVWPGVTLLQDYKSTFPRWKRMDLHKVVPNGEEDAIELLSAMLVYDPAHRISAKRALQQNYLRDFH

No constants are given. Whether binding was seen depends on the method and setting. In cells and extracts the contact can be indirect. Some entries that bind do so weakly or less than the wild type. Where a sequence is shown, tags or fusion partners need not be part of it.

Consider “Cdc2-asM17 (Cdc2 K79E F84G) (from UniProt P04551 1-297) (enzyme)”, for which the binding result was “binds”.

On to “Cdc2 wild type (Cdk1 of fission yeast) (from UniProt P04551 1-297) (enzyme)”, for which the binding result was “binds”.
